This is an account of results in patent CN113388035A.

By UniProt entry, the sequences of proteins in these tests, tags left out. Residues count along the entry.
UniProt Q969D9, residues 29-159: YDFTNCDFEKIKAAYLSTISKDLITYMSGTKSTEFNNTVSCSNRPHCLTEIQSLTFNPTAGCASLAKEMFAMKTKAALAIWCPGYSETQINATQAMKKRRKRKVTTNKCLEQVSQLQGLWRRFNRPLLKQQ

Results are given in words; binding and its absence hold for the method and conditions named. Some entries that bind do so weakly or less than the wild type.

In the experiment the target is 人TSLP (human thymic stromal lymphopoietin) protein (human) (UniProt Q969D9). Nature of the experiment: ELISA, antigen coated at 1ug/ml, HRP-goat anti-human IgG.

B1: hzD01Lm12 (humanized, affinity-matured anti-human TSLP antibody) (antibody, human IgG2, V domains shown, not shown: large carriers)
VH: EVQLVQSGAEVKKPGASVKVSCKASGYTFTNYFIDWVRQAPGQGLEWIGVINPGSGGTNFNEKFKGRVTMTRDTSTSTAYMELSSLRSEDTAVYFCARESEVGEGFAYWGQGTLVTVSS
VL: DIQMTQSPSSLSASVGDRVTISCRASQDISNYLNWYQQKPGKAPKLLIYYTSTLHSGVPSRFSGSGSGTDYTLTISSLQPEDIATYFCQQFDTLPYPFGQGTKLEIK
As for B1, the binding entry is on record as “binds”.
